Assay results as given in paper PMC10787008.
No constants are given. Whether binding was seen depends on the method and setting. In cells and extracts the contact can be indirect. For part of these data: Where a sequence is shown, tags or fusion partners need not be part of it.

Legend:
[1] = biological target: T1, Flag-tagged (in C-terminal) human CHCHD2, doxycycline-inducible in CHCHD2 KO hESCs (KO-iC2) (human) (UniProt Q9Y6H1); assay: co-IP; CHCHD2 immunoprecipitated from hESC lysates (1 mg total protein, 2 ug antibody, 4 °C 16 h, Protein-A or G agarose, washes in tissue lysis buffer), immunoblot for BCL-xL; WT and CHCHD2 KO hESCs with Bcl-xL-Flag (Fig. 7A) and KO-iC2 hESCs after Dox with Bcl-xL-Flag (Fig. 7B)
T1 sequence: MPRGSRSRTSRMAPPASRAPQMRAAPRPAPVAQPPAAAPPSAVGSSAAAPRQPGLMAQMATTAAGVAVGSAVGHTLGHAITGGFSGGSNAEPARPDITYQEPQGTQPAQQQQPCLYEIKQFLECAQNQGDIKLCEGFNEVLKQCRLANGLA

[2] = biological target: T2, Coiled-coil-helix-coiled-coil-helix domain containing 2 (CHCHD2), endogenous in WT hESCs (human (endogenous in H9 hESCs)) (UniProt Q9Y6H1); assay: as above
T2 sequence: T1 sequence

| Substance | binding [1] | binding [2] |
| --- | --- | --- |
| BCL-xL with FLAG tag, ectopically expressed in hESCs (from UniProt Q07817-1 1-233) | no binding | no binding |
| BCL-xL, endogenous in hESCs (from UniProt Q07817-1 1-233) | – | no binding |
